For at least one compound, name, drawing or mass did not settle the structure.
Test system: men with metastatic castration resistant prostate cancer (mCRPC)
Assay: Estradiol, ethynyl estradiol and estrogen agonists as secondary hormone therapy for mCRPC (Study 6 protocol, Example 28)
Assay type: in vivo, human
Conditions: Compound IV 125, 250 or 500 mg daily oral
Description: This study also assesses the VTE risk of lower doses of estradiol, ethynyl estradiol, steroidal estrogen agonists and nonsteroidal estrogen agonist. Secondary endpoints include serum free testosterone levels, adrenal gland androgen precursor production (DHEA and DHEAS levels), progression free survival, and skeletal related events (SRE).

SMILES: C[C@]12CC[C@@H]3c4ccc(O)cc4CC[C@H]3[C@@H]1CC[C@@H]2O [estradiol]
- Effect on serum SHBG: increase in serum SHBG

Reference: patent publication US9624161B2 (priority 2009, dated 2017)
